Structures were worked out from names or drawings and are uncertain.
Molecular target: hSTING (Homo sapiens, UniProt Q86WV6, G230A/H232R/R293Q/R71H)
Experiment: STING reporter assay (luciferase) in THP1-Dual KO-IFNAR2 cells activated with 2'3'cGAMP
Settings: read-out: hSTING EC50, 15 μM 2'3'cGAMP, 24 h
Method: STING pathway activation by the compounds described herein was measured using THP1-Dual™ cells (KO-IFNAR2).
THP1-Dual™ KO-IFNAR2 Cells (obtained from invivogen) were maintained in RPMI, 10% FCS, 5 ml P/S, 2 mM L-glut, 10 mM Hepes, and 1 mM sodium pyruvate. Compounds were spotted in empty 384 well tissue culture plates (Greiner 781182) by Echo for a final concentration of 0.0017-100 μM. Cells were plated into the TC plates at 40 μL per well, 2×10E6 cells/mL. For activation with STING ligand, 2′3′cGAMP (MW 718.38, obtained from Invivogen), was prepared in Optimem media.
The following solutions were prepared for each 1×384 plate: • Solution A: 2 mL Optimem with one of the following stimuli: • 60 μL of 10 mM 2′3′cGAMP 4 150 μM stock • Solution B: 2 mL Optimem with 60 μL Lipofectamine 2000 4 Incubate 5 min at RT
2 mL of solution A and 2 ml Solution B was mixed and incubated for 20 min at room temperature (RT). […] Luciferase reporter activity was then measured. EC50 values were calculated by using standard methods known in the art.
Luciferase reporter assay: 10 μL of supernatant from the assay was transferred to white 384-plate with flat bottom and squared wells. […] Luminescence was measured on a Platereader (e.g., Spectramax I3X (Molecular Devices GF3637001)).
Luciferase reporter activity was then measured. EC50 values were calculated by using standard methods known in the art.

By UniProt entry, the sequences of proteins in these tests, tags left out.
UniProt Q86WV6, whole entry R71H/G230A/H232R/R293Q: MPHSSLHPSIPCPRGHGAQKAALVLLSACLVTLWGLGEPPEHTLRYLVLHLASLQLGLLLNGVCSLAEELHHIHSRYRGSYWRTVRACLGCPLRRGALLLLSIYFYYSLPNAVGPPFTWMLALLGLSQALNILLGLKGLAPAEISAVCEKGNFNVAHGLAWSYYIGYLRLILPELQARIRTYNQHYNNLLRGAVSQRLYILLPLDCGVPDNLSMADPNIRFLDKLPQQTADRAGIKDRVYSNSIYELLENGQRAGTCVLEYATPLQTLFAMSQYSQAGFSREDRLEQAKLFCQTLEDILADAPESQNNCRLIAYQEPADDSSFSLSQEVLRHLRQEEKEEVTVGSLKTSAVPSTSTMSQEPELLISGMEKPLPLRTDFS

EC50: 0.2 to 1 µM
SMILES: FC1(F)CC=C(c2ccc3[nH]c(Nc4cc(Cl)c5cc[nH]c5c4)nc3c2)CC1

Reference: patent US20240051970A1, “COMPOUNDS AND COMPOSITIONS FOR TREATING CONDITIONS ASSOCIATED WITH STING ACTIVITY” (IFM Due, Inc., priority 2020, published 2024)
